EC50 data for two molecules are collected here from article PMC10485894, “Corticosteroids as Selective and Effective Modulators of Glycine Receptors” (ACS Chemical Neuroscience, 2023).

This experiment concerns GABA-A receptors (GABAAR). The following applies: 2 μM GABA, peak amplitude.

One may read the EC50 as the concentration needed to bring the measured effect to its halfway point. A high value points to a need for much substance.

The molecule `C[C@]12CC[C@@H](O)C[C@@H]1CC[C@@H]1[C@@H]2[C@@H](O)C[C@]2(C)[C@@H](C(=O)CO)CC[C@@H]12` [3α5α-CORT, 3α,11β,21-Trihydroxy-5α-pregnan-20-one] came in with an EC50 of 23 ± 8 µM.

Take `C[C@]12CC[C@@H](O)C[C@H]1CC[C@@H]1[C@@H]2[C@@H](O)C[C@]2(C)[C@@H](C(=O)CO)CC[C@@H]12` [3α5β-CORT, 3α,11β,21-Trihydroxy-5β-pregnan-20-one]: the EC50 came out at 18 ± 7 µM.
